# Reference: PubChem BioAssay AID493014 (National Center for Advancing Translational Sciences (NCATS), 2011)
# The other results are listed elsewhere or left out. These are further read-outs of the screen, such as a control signal, another cell line or another target. No call is given for them. Compounds called inactive in the main read-out are mostly missing here. The note in brackets gives the kind of curve behind each potency; many fits are weak.
# Assay: qHTS Assay to Find Inhibitors of Chronic Active B-Cell Receptor Signaling
# Conditions: ABC-DLBCL IkBa-CBG/CBR reporter, luminescence ratio (green luciferase fused to IkBa over red control in TMD8 lymphoma cells), 4 h
# Method in brief: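 Doxycycline induced both beetle luciferases in TMD8 lymphoma cells; IKK-driven degradation limits the IkappaBalpha-fused green signal, while red luminescence normalises for cell number and nonspecific effects. Compounds tested up to 46 uM, 4 hrs.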
# [1] = measured here: CBR red luminescence, cell number
# [2] = measured here: IkBa-CBG green luminescence
Structure (SMILES),AC50 [1],AC50 [2]
O=C(COc1ccc(Cl)cc1)Nc1ccc2c(c1)CCC2,"1.84 µM [rising, full curve, poor fit]",
CCOCCCNC(=O)c1ccc2c(=O)n(Cc3ccc(OC)cc3)c(=O)[nH]c2c1,"0.1 µM [rising, full curve, poor fit]",
Cc1c(C(=O)O)sc2c1c(=O)n(Cc1ccccc1)c(=O)n2C,"35.5 µM [falling, single point]",
CCN1CCN(C(=O)NC(c2ccc(C)c(F)c2)C(Cl)Cl)CC1 (configuration not stated),"1.41 µM [falling, full curve]",
COCCNc1ncnc2c1cnn2Cc1ccc(Cl)cc1,"11.6 µM [rising, partial curve, poor fit]",
CCCN1CCN(C(=O)Cn2nc(CC)n3c(cc4sccc43)c2=O)CC1,"1.12 µM [rising, full curve, poor fit]",
O=C(N/N=C/c1ccc(N2CCCCC2)o1)C(O)(c1ccccc1)c1ccccc1,"14.6 µM [falling, partial curve]",
Cc1cc(C)c2[nH]c(C(=O)Nc3ccc4c(c3)OCO4)cc2c1,"5.01 µM [falling, full curve, poor fit]",
CSc1nc(-c2ccc(Cl)cc2)nn1C(=O)c1ccco1,"5.8 µM [rising, single point]",
O=c1[nH]cnc2scc(-c3cccs3)c12,"20.6 µM [falling, single point]",
O=C(O)CC(NC(=O)C1CCCCC1)c1ccc(OC2CCCC2)cc1 (configuration not stated),"35.5 µM [falling, single point]",
Cc1cc(NS(=O)(=O)c2ccc(NC(=S)NC(=O)c3ccccc3)cc2)no1,"16.4 µM [falling, partial curve, poor fit]",
CCOC(=O)C1CCCN(S(=O)(=O)c2cc3c4c(c2)CCN4C(=O)CC3)C1 (configuration not stated),"6.51 µM [rising, single point]",
Cc1ccnc(SCC(=O)Nc2cccc(S(=O)(=O)N3CCOCC3)c2)n1,"6.51 µM [rising, partial curve, poor fit]",
CCc1ccc(-c2ccc(C(=O)O)cc2)nc1,"7.08 µM [falling, partial curve, poor fit]",
CCOC(=O)CC(=O)CSc1nc2c(c(-c3cccs3)c1C#N)CCC2,"29.1 µM [falling, single point]",
COc1ccc(O)c(CN2CCCC(C(=O)Nc3cccc(-n4cccn4)c3)C2)c1 (configuration not stated),"28.2 µM [falling, single point]",
O=C1NC(=Nc2ccccc2)S/C1=C/c1cccnc1,"7.08 µM [falling, partial curve, poor fit]",
O=C(Nc1cccnc1)c1cnc2ccccc2n1,"11.2 µM [falling, partial curve, poor fit]",
CCc1noc(C)c1C(=O)Nc1cccc2ncccc12,"2.51 µM [falling, full curve]",
CC(OC(=O)c1cnc2ccccc2n1)c1ccccc1Cl (configuration not stated),"7.94 µM [rising, partial curve]",
O=C(NCc1ccncc1)NC12CC3CC(CC(C3)C1)C2,"0.316 µM [rising, full curve, poor fit]",

Structure (SMILES),AC50 [1],AC50 [2]
CCc1ccc(C(O)(c2ccccc2OC)C(CN2CCOCC2)c2ccccc2)cc1 (configuration not stated),"15.8 µM [falling, single point]",
Cc1cc(C)c2c(C)nn(C3CCCCC3)c2n1,"4.61 µM [rising, partial curve, poor fit]",
C/C(=N\NC(=O)c1ccccc1F)c1ccccn1,"11.2 µM [falling, partial curve]","35.5 µM [falling, single point]"
CCC1SC(CC)C(=O)N(CC(=O)Nc2ccc3c(c2)OCO3)C1=O (configuration not stated),"14.6 µM [rising, partial curve, poor fit]",
Cc1ccccc1-c1nc(S(=O)(=O)c2ccc(Cl)cc2)c(NCCN2CCOCC2)o1,"9.2 µM [falling, partial curve, poor fit]",
CC(C)NC(=O)c1onc(CSc2ccccc2)c1C(=O)O,"11.2 µM [falling, partial curve]",
O=C(c1cccs1)N1CCN(C(=O)c2cn(-c3ccccc3)nc2-c2ccccc2)CC1,"20.6 µM [rising, partial curve]",
CCOc1ccc2c(O)csc2c1,"3.66 µM [falling, partial curve, poor fit]",
Nc1n[nH]c(=S)n1-c1ccc(Cl)cc1,"31.6 µM [falling, single point]",
Cc1cc(C(=O)Nc2ccccc2Cc2ccccc2)no1,"7.94 µM [falling, partial curve]",
Cc1cccc(C)c1NC(=O)c1cc(-c2ccccn2)nc2ccccc12,"22.4 µM [falling, single point]",
COc1ccc(C(=O)/C=C/Nc2ccc(S(=O)(=O)Nc3cccc(C(C)=O)c3)cc2)cc1,"0.058 µM [rising, full curve, poor fit]",
COC(=O)c1c(-c2ccc(N(C)C)cc2)sc2ccc(OC)cc12,"0.92 µM [rising, full curve, poor fit]",
COc1ccc(-c2cc([C@H]3[C@@H]4C=CCC[C@@]4(C)C(=O)N3Cc3ccccc3)ccc2F)cc1OC,"35.5 µM [falling, single point]",
CCOc1ccccc1NC(=O)C(=O)N/N=C/c1cc(Br)ccc1O,"6.31 µM [falling, partial curve]",
S=C(NCCCc1ccccc1)Nc1ccccc1Cl,"25.9 µM [falling, single point]",
CC1CCCN(c2ccc3nc4ccccc4c(=O)n3n2)C1 (configuration not stated),"10 µM [falling, partial curve, poor fit]",
COc1cccc(NC(=O)CC2SC(=Nc3ccccc3)NC2=O)c1 (configuration not stated),"2.91 µM [falling, full curve, poor fit]",
CNS(=O)(=O)c1ccc2c(c1)NC(=O)C1CCCN21 (configuration not stated),"14.6 µM [rising, partial curve, poor fit]",
O=C(CSc1ccc2c(c1)OCCO2)Nc1cccnc1Cl,"6.31 µM [falling, partial curve, poor fit]",
COc1ccc(C(=O)N2CCOCC2)cc1Br,"2.06 µM [rising, full curve, poor fit]",
COc1ccc(NC(=S)NC(=O)c2ccccc2)cn1,"17.8 µM [falling, partial curve]",

# A few values from above:
# AC50 [1], `CCOC(=O)CC(=O)CSc1nc2c(c(-c3cccs3)c1C#N)CCC2` reads 29.1 µM [falling, single point]
# AC50 [1], `COCCNc1ncnc2c1cnn2Cc1ccc(Cl)cc1` reads 11.6 µM [rising, partial curve, poor fit]
# AC50 [1], `CC(OC(=O)c1cnc2ccccc2n1)c1ccccc1Cl` (configuration not stated) reads 7.94 µM [rising, partial curve]

# The list continues:

Structure (SMILES),AC50 [1],AC50 [2]
C=CCN1C(=O)NC(c2ccc(OC)cc2)(C(F)(F)F)S/C1=C(\C#N)c1nnc(N2CCOCC2)n1-c1ccccc1 (configuration not stated),"5.17 µM [falling, partial curve]",
O=C(NC(=S)Nc1ccccc1C(=O)O)c1cncc(Br)c1,"17.8 µM [falling, single point]",
COC(=O)c1cc(OC)c(OC)cc1NC(=S)Nc1cc(Cl)ccc1OC,"20.6 µM [falling, single point]",
Nc1nc(SCc2nnc(SCC(=O)O)n2-c2ccccc2)nc2sc3c(c12)CCCC3,"7.31 µM [falling, partial curve, poor fit]",
CSc1ccccc1NC(=O)CN(c1ccccc1)S(=O)(=O)N(C)C,"0.116 µM [rising, full curve, poor fit]",
COc1ccccc1NC(=O)c1cc([N+](=O)[O-])ccc1NCCN1C(=O)CCC1=O,"2.51 µM [rising, full curve]",
O=C(NCc1cccs1)c1cc2c(s1)CCCC2,"32.6 µM [falling, single point]",
COc1ccc(CC(=O)NCc2nnc(SCC(=O)Nc3nccs3)n2-c2ccccc2)cc1,"23.1 µM [falling, partial curve, poor fit]",
CCOc1ccc(OCc2ccc(C(=O)Nc3ccc(Cl)cn3)o2)cc1,"16.4 µM [falling, partial curve, poor fit]",
Cc1ccc(CCN2CC(C(=O)O)CC2=O)cc1 (configuration not stated),"6.51 µM [rising, single point]",
O=C(N/N=C/c1cccnc1)c1cc2ccccc2o1,"23.1 µM [falling, partial curve, poor fit]",
OCCCCNCc1cc(Br)ccc1OCc1ccccc1,"1 µM [rising, full curve, poor fit]",
Cn1cccc1/C=C1\SC(=O)N(c2ccc(O)cc2)C1=O,"18.4 µM [falling, partial curve]",
COc1ccccc1/C=N/Nc1nc(C)cc(C)n1,"12.6 µM [falling, partial curve, poor fit]",
Cc1ccccc1C(=O)Oc1ccc2ccc(O)cc2c1,,"12.6 µM [falling, partial curve, poor fit]"
CN(/N=C/c1cc(Cl)cc(Cl)c1O)c1c(Cl)cccc1[N+](=O)[O-],,"14.1 µM [rising, partial curve, poor fit]"
Cc1ccc(N(C(=O)Cc2cccs2)C(C(=O)NC2CCCCC2)c2ccccn2)cc1C (configuration not stated),"0.082 µM [falling, full curve, poor fit]",
Cn1c(COc2ccccc2)nnc1SCc1nc2ccccc2[nH]1,"0.58 µM [rising, full curve, poor fit]",
Cc1ccc(NC(=O)CNc2ccccc2N2CCCC2=O)cc1S(=O)(=O)N1CCOCC1,"11.6 µM [rising, partial curve]",
O=C(NCc1ccccn1)c1ccc(Cn2c(=S)[nH]c3ccccc3c2=O)cc1,"5.62 µM [rising, single point]",
O=C(Nc1ccc(F)cc1)C1CCCO1 (configuration not stated),"15.8 µM [falling, single point]",
CCc1c(C(=O)NC2CCCC2)csc1C,"5.17 µM [rising, single point]",
